Here are results for one substance from US20200222444A1.

Protein sequences, listed by entry. Tags and fused reporters are not part of them. Lines headed by an entry give the natural chain unless they say otherwise; changes in a name come on top. Residues count along the entry.
UniProt Q13315, residues 2-3056: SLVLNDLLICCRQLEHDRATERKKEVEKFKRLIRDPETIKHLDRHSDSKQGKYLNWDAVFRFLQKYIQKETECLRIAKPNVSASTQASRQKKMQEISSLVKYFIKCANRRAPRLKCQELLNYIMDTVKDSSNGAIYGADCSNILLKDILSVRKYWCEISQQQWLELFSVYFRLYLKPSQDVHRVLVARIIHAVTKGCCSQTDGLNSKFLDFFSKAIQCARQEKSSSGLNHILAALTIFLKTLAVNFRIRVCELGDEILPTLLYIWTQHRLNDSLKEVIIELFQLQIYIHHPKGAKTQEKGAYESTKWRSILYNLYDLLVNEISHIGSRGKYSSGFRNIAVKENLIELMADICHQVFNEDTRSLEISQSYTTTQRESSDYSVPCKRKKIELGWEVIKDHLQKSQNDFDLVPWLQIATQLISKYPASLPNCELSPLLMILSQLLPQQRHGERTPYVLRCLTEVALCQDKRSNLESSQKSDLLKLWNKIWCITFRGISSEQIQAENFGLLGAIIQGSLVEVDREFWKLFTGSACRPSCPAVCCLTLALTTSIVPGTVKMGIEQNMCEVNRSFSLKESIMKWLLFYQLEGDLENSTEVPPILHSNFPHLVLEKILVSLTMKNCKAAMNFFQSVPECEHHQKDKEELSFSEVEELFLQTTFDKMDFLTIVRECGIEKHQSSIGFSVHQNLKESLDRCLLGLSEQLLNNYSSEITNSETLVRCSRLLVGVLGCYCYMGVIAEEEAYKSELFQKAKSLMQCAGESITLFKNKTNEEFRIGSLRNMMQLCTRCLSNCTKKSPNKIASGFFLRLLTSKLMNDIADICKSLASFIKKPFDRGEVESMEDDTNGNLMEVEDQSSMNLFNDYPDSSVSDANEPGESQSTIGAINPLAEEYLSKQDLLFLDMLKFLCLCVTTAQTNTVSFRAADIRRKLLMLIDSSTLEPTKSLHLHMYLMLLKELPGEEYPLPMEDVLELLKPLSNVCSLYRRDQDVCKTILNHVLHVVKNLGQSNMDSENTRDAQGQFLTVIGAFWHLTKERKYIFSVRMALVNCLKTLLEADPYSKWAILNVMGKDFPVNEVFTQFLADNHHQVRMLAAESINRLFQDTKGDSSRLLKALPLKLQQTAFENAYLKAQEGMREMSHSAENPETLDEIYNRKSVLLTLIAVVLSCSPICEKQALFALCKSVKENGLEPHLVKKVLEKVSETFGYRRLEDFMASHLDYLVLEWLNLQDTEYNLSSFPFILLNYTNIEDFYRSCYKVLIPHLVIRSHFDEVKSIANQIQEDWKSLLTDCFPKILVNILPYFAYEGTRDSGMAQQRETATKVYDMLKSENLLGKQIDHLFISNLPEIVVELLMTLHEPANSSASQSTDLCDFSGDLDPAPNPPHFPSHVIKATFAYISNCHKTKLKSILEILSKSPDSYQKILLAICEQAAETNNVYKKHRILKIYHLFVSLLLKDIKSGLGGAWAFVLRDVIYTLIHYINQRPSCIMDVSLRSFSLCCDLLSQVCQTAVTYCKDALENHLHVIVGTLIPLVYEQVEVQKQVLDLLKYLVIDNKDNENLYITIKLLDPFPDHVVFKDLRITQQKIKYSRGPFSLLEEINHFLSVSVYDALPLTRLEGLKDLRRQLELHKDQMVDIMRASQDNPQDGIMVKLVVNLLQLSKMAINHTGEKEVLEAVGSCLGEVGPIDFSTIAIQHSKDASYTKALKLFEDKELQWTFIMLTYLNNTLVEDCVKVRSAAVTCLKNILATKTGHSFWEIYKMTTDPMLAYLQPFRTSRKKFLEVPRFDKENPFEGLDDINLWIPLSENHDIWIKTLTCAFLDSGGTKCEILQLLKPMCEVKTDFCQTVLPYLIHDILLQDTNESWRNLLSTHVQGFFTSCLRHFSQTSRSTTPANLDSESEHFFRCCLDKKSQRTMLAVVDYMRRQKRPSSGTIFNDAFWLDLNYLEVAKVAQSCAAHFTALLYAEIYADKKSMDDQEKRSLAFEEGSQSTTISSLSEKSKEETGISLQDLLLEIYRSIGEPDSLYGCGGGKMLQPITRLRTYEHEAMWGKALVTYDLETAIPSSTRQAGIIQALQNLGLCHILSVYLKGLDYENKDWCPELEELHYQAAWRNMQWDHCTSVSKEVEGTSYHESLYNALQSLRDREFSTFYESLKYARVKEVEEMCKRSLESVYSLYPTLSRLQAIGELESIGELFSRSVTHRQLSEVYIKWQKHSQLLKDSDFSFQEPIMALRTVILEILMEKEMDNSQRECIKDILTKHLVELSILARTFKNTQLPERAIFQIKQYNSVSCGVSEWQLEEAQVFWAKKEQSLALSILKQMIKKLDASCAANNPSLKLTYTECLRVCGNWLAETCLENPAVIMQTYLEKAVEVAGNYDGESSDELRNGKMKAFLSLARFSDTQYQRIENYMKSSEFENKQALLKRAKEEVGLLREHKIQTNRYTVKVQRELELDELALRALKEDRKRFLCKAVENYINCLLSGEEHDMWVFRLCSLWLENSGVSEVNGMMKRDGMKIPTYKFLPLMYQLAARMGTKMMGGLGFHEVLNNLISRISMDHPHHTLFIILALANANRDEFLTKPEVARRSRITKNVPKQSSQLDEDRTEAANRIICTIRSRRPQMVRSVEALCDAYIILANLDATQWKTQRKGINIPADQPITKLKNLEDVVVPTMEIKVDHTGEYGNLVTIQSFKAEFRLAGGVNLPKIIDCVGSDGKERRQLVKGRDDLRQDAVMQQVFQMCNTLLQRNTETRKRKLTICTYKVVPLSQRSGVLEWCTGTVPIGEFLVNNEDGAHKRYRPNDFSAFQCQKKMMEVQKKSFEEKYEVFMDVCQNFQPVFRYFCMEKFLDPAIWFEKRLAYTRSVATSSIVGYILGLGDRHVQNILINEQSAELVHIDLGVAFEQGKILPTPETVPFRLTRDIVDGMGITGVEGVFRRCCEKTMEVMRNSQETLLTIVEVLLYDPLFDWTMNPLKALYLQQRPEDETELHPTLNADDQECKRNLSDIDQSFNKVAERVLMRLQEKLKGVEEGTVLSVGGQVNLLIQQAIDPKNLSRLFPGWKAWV
UniProt Q9H825: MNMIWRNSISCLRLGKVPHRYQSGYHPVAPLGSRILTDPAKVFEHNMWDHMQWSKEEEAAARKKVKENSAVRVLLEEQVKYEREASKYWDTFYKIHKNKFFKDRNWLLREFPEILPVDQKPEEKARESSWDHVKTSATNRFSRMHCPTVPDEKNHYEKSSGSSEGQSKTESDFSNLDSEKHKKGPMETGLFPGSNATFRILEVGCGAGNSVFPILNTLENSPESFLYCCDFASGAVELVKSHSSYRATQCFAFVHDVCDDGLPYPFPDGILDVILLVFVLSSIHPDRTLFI

These are yes or no findings as the source states them, for the method shown. Binding seen in cells or lysates may run through a third protein. A result given as binding can be weak or reduced; the word gives no strength.

This test concerns the target Endogenous ATM (human) (UniProt Q13315). Put plainly: co-immunoprecipitation with Flag antibody from 293T cells, immunoblot (FIG. 7F).

As to “Flag-Mettl8 (Flag-tagged human Mettl8, wild type) (from UniProt Q9H825) (enzyme)”, the binding result was “binds”.
